Binding data for 2 molecules are collected here from article doi:10.1101/2025.06.30.651016.

Amino acid sequences for entries named in this document (tags omitted).
UniProt Q16515: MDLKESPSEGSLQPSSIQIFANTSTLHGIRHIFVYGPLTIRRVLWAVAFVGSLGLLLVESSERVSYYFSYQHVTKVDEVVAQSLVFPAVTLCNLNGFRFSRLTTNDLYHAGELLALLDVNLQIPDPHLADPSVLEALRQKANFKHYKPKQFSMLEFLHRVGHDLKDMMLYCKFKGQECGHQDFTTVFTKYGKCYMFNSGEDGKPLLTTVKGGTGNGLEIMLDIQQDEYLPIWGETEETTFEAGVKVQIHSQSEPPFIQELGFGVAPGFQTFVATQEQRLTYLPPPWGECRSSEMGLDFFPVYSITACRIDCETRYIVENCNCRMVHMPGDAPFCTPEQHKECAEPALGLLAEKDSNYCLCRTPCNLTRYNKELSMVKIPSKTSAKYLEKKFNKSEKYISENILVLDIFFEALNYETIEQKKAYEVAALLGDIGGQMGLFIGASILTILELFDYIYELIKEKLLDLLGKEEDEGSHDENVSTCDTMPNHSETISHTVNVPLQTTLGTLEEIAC

Results are given in words; binding and its absence hold for the method and conditions named. Binding seen in cells or lysates may run through a third protein. Some entries that bind do so weakly or less than the wild type. Tags and fused reporters may be left off the sequences shown.

What all share (test): co-IP
The target of test [1] is T1, ASIC1a C-terminally tagged with GFP followed by 1D4 tag (human) (UniProt P78348).
T1 sequence: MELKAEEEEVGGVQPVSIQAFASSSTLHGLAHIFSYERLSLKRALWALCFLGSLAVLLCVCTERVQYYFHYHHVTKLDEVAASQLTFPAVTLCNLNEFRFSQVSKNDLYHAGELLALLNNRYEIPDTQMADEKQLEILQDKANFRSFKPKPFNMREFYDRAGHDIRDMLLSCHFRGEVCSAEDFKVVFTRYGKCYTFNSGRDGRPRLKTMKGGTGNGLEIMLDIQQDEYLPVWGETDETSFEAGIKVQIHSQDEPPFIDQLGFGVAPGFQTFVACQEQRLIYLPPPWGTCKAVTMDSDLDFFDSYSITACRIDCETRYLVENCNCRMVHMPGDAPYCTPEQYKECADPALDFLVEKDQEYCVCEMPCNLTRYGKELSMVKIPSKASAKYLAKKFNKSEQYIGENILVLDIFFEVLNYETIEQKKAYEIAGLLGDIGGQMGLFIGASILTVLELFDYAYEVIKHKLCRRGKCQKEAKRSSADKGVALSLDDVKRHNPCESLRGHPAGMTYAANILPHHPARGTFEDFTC

The next test has as its target T2, ASIC3 (UniProt Q9UHC3).
T2 sequence: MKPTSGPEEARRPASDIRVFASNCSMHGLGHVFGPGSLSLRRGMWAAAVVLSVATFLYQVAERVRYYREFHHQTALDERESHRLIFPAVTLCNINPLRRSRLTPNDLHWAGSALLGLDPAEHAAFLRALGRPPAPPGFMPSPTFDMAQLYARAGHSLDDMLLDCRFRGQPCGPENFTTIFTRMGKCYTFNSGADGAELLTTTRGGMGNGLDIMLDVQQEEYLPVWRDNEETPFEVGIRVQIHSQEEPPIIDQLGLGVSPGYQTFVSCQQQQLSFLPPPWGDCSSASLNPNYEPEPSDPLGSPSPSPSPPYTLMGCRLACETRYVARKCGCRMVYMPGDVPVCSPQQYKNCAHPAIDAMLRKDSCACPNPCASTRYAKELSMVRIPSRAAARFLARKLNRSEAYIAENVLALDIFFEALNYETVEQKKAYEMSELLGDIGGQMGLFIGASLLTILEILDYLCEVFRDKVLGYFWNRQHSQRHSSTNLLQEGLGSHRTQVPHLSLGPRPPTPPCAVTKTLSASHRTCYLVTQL

The next test addresses ASIC2a (UniProt Q16515).

B1: human MCT4 with N-terminal mCherry and Flag tag (protein, UniProt O15427 1-465)
chain: MGGAVVDEGPTGVKAPDGGWGWAVLFGCFVITGFSYAFPKAVSVFFKELIQEFGIGYSDTAWISSILLAMLYGTGPLCSVCVNRFGCRPVMLVGGLFASLGMVAASFCRSIIQVYLTTGVITGLGLALNFQPSLIMLNRYFSKRRPMANGLAAAGSPVFLCALSPLGQLLQDRYGWRGGFLILGGLLLNCCVCAALMRPLVVTAQPGSGPPRPSRRLLDLSVFRDRGFVLYAVAASVMVLGLFVPPVFVVSYAKDLGVPDTKAAFLLTILGFIDIFARPAAGFVAGLGKVRPYSVYLFSFSMFFNGLADLAGSTAGDYGGLVVFCIFFGISYGMVGALQFEVLMAIVGTHKFSSAIGLVLLMEAVAVLVGPPSGGKLLDATHVYMYVFILAGAEVLTSSLILLLGNFFCIRKKPKEPQPEVAAAEEEKLHKPPADSGVDLREVEHFLKAEPEKNGEVVHTPETSV
Regarding B1, in test [1], the binding entry is listed as “binds”.

B2: human MCT1 with N-terminal mCherry and Flag tag (protein, UniProt P53985 1-500)
chain: MPPAVGGPVGYTPPDGGWGWAVVIGAFISIGFSYAFPKSITVFFKEIEGIFHATTSEVSWISSIMLAVMYGGGPISSILVNKYGSRIVMIVGGCLSGCGLIAASFCNTVQQLYVCIGVIGGLGLAFNLNPALTMIGKYFYKRRPLANGLAMAGSPVFLCTLAPLNQVFFGIFGWRGSFLILGGLLLNCCVAGALMRPIGPKPTKAGKDKSKASLEKAGKSGVKKDLHDANTDLIGRHPKQEKRSVFQTINQFLDLTLFTHRGFLLYLSGNVIMFFGLFAPLVFLSSYGKSQHYSSEKSAFLLSILAFVDMVARPSMGLVANTKPIRPRIQYFFAASVVANGVCHMLAPLSTTYVGFCVYAGFFGFAFGWLSSVLFETLMDLVGPQRFSSAVGLVTIVECCPVLLGPPLLGRLNDMYGDYKYTYWACGVVLIISGIYLFIGMGINYRLLAKEQKANEQKKESKEEETSIDVAGKPNEVTKAAESPDQKDTDGGPKEEESPV
In the case of B2, the binding result (with ASIC3; with ASIC2a; in test [1]) was “binds” throughout.
